Test results published in PubChem BioAssay AID2060903 (Molecular Pharmacology Branch, DTP, NCI, 2025).
The source gives many values for each of these; only a part stands here.

System: 377384-186-R-J1-PDC complex spheroid viability
Experiment: Anticancer human tumor 377384-186-R-J1-PDC patient-derived pancreatic carcinoma cell line growth inhibition [RAS]
Settings: stronger effect = lower value; active = viability on the fitted dose curve at most 10% of control; inactive = the rest
Excerpt: RAS pathway inhibitors in Combinations in Complex Spheroids
A high-throughput screen of multi-cell type tumor spheroids was designed to identify active combinations of RAS pathway inhibitors and targeted small molecules. Complex spheroids include a stromal component modeled by human endothelial cells (HUVEC) and fibroblasts modeled by human mesenchymal stem cells (MSCs). The concentration ranges selected for each drug and investigational agent were based upon clinically achievable concentrations if the clinical Cmax of the agent was known.
Compounds. The drugs and investigational agents: abemaciclib (NSC768073), cobimetinib (NSC768068), divarasib (GDC6063, NSC841802), docetaxel (NSC628503), GDC-1971 (RLY-1971, NSC841576), gemcitabine (NSC613327), inavolisib (NSC800729), ipatasertib (NSC767898), KB-0742 (NSC834161), MRTX-1133 (NSC836407), osimertinib (NSC779217), RMC-4630 (NSC839698), RMC-6236 (NSC851965), RMC-6291 (NSC852671), Ro-3306 (NSC812927), sapanisertib (NSC764658), SN-38 (NSC673596), staurosporine (NSC755774), SY5609 (NSC837396), and tovorafenib (DAY101, NSC766906), were obtained from the National Cancer Institute (NCI) Developmental Therapeutics Program Chemical Repository. The FDA-approved anticancer drug set is available from the NCI Developmental Therapeutics Program. […] The stock solutions were prepared in dimethyl sulfoxide (DMSO, Sigma-Aldrich, St. Louis, MO, cat. D2650) at 800-fold the tested concentration and stored at -70 degrees C prior to their use. All drugs and investigational agents were tested over a range starting from a high concentration at or near the clinical Cmax and decreasing in half-log increments. If the clinical Cmax for an agent had not been determined, the highest concentration tested was 10 microM.
Cell Culture. All cells were maintained in an incubator at 37 degrees C and 5% CO2 with 95% humidity. The PDC lines were cultured according to standard operating procedures established by the NCI PDMR. All PDCs were thawed and cultured in Matrigel-coated flasks prepared with a working solution of 1X Ham's F-12 nutrient mix, without supplementation (Invitrogen, Waltham, MA, cat. 11765054), 100 U/mL penicillin-streptomycin (Invitrogen, cat. 15140122), and 2.5% Matrigel (Corning Inc., Corning, NY, cat. 354248) for the first three passages. The 362531-283-R-J2-PDC and 782815-120-R-J1-PDC lines were cultured in 6C/Colon 1B media, which includes advanced DMEM/F-12 (Thermo Fisher Scientific, cat. 12634028), 10 mM HEPES (Thermo Fisher Scientific, cat. 15630080), 1X GlutaMAX supplement (Thermo Fisher Scientific, cat. 35050061), 0.1 mg/mL primocin (InvivoGen, San Diego, CA, cat. ant-pm-2), 10% defined fetal bovine serum, heat inactivated (HyClone Laboratories Inc., Logan, UT, cat. SH30070.03HI), 50% L-WRN conditioned media (ATCC, cat. CRL-3276), 1.25 mM N-Acetyl-L-cysteine (Sigma-Aldrich, cat. A9165), 10 mM nicotinamide (Sigma-Aldrich, cat. N0636), 1X B-27 supplement (Thermo Fisher Scientific, cat. 17504044), 1X N-2 supplement (Thermo Fisher Scientific, cat. 17502048), 50 ng/mL human EGF (Thermo Fisher Scientific, cat. PHG0311), and 10 microM Y-27632 dihydrochloride (Tocris Bioscience, cat. 1254). The K12877-001-R-J1-PDC line was cultured in 6I media, which includes all 6C/Colon 1B media plus 10 ng/mL human FGF-10 (PeproTech, cat. 100-26), 1 ng/mL human FGF-2 (PeproTech, cat. 100-18B), 1 µM prostaglandin E2 (Tocris Bioscience, cat. 2296), […] hydrocortisone (Sigma-Aldrich, cat. H4001), and […] bovine insulin (Sigma-Aldrich, cat. I6634). The K86415-001-R-J1-PDC line was cultured in 6D media, which includes all 6C/Colon 1B media components minus the L-WRN conditioned media. The 485176-168-R4-J1-PDC was cultured in PANC media, which includes all 6C/Colon 1B media plus 100 ng/mL human FGF-10 (PeproTech, cat. 100-26), 500 nM SB-431542 (Selleckchem, cat. S1067), and 10 nM gastrin (Tocris Bioscience, cat. 3006). […]

Measured: viability, T/C
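Also: spheroids exposed to compounds for seven days before readout.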

C=CC(=O)N1CCN(c2nc(OCC3CCCN3C)nc3c(F)c(-c4nc(N)cc(C)c4C(F)(F)F)c(Cl)cc23)C(C)C1 (stereo not drawn)
inactive: compound 0.00316 µM, compound 0.01 µM 92.5% | compound 0.00316 µM, compound 0.0316 µM 96.9% | compound 0.00316 µM, compound 0.1 µM 97.3% | compound 0.00316 µM, compound 0.316 µM 83.2% | compound 0.00316 µM, compound 1 µM 85.4% | compound 0.00316 µM 88% | compound 0.01 µM, compound 0.00316 µM 99.9% | compound 0.01 µM 97%
